Results deposited as PubChem BioAssay AID1259405 (NCATS, 2018)
Here is an unselected part of about 50,000 reagents tested. In the full data, about 4,000 (8%) are marked active. 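Mouse siRNA library applied to hamster cells; one well for each siRNA.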 Unmarked entries are inactive. The numbers tell different reagents against one gene apart.

Purpose: 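Knock-downs that lift recombinant protein yield in hamster ovary cells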 (primary screen)
System: Chinese hamster CHO-K1 ovary cells with stable secreted eGFP expression
Knock-down reagent: single siRNA against mouse genes, 0.8 pmol siRNA per well (2 µl of 400 nM stock)
Timing: 3 days
Read-out: 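Percent of the per-plate non-targeting control median for intracellular GFP per well by laser scanning cytometry and for cell viability by ATP luminescence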
Reading the numbers: GFP, % of control: higher = more GFP per well, higher productivity; viability (ATP), % of control: higher = more viable cells (more ATP)
Rule for the call: 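Called active when intracellular GFP, relative to negative control, is at or above 120%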

no.	gene knocked down	siRNA no.	GFP, % of control	viability (ATP), % of control
1	Alox12b	1	115	120
2	Alox12b	2	64	69.9
3	Slc40a1	1	76.5	80.3
4	Slc40a1	2	44.4	51.1
5	Wnt2	1	79.5	86.8
6	Wnt2	2	67.8	84.7
7	Wnt2	3	69.6	46.2
8	Sall1	1	57.6	67.5
9	Sall1	2	86.8	94.7
10	Sall1	3	68.3	99.9
11	Fcrl1	1	67.5	68.8
12	Fcrl1	2	49.2	69.3
13	Fcrl1	3	88	69.5
14	Emcn	1	60.8	79.1
15	Emcn	2	117	72.4
16	Emcn	3	131 (active)	68.7
17	Rc3h1	1	1.94	18.9
18	Rc3h1	2	79.6	73.4
19	Rc3h1	3	65.3	90
20	Fbxo27	1	119	73.1
21	Fbxo27	2	109	79
22	Atp5pf	1	74.9	77
23	Atp5pf	2	60.5	96.5
24	Atp5pf	3	68	83.8
25	Naa10	1	58.7	68.6
26	Naa10	2	77.5	89.4
27	Naa10	3	89.1	87.2
28	Eif2s3y	1	89.1	47.2
29	Eif2s3y	2	181 (active)	59.1
30	Eif2s3y	3	67.1	43.9
31	Fbh1	1	79.1	73.2
32	Fbh1	2	89.4	68.2
33	Fbh1	3	87.8	118
34	Heph	1	90.7	73.6
35	Heph	2	57.4	63.1
36	Heph	3	28.2	49.9
